Source: paper PMC12265967
These are yes or no findings as the source states them, for the method shown. In cells and extracts the contact can be indirect. Some results given as binding are weak or reduced against the parent protein; the word gives no strength. Sequences can lack the tags named with a protein.

Chains of the proteins cited; added tags and fusions are not shown. Residues count along the entry.
UniProt P17948, residues 27-1338: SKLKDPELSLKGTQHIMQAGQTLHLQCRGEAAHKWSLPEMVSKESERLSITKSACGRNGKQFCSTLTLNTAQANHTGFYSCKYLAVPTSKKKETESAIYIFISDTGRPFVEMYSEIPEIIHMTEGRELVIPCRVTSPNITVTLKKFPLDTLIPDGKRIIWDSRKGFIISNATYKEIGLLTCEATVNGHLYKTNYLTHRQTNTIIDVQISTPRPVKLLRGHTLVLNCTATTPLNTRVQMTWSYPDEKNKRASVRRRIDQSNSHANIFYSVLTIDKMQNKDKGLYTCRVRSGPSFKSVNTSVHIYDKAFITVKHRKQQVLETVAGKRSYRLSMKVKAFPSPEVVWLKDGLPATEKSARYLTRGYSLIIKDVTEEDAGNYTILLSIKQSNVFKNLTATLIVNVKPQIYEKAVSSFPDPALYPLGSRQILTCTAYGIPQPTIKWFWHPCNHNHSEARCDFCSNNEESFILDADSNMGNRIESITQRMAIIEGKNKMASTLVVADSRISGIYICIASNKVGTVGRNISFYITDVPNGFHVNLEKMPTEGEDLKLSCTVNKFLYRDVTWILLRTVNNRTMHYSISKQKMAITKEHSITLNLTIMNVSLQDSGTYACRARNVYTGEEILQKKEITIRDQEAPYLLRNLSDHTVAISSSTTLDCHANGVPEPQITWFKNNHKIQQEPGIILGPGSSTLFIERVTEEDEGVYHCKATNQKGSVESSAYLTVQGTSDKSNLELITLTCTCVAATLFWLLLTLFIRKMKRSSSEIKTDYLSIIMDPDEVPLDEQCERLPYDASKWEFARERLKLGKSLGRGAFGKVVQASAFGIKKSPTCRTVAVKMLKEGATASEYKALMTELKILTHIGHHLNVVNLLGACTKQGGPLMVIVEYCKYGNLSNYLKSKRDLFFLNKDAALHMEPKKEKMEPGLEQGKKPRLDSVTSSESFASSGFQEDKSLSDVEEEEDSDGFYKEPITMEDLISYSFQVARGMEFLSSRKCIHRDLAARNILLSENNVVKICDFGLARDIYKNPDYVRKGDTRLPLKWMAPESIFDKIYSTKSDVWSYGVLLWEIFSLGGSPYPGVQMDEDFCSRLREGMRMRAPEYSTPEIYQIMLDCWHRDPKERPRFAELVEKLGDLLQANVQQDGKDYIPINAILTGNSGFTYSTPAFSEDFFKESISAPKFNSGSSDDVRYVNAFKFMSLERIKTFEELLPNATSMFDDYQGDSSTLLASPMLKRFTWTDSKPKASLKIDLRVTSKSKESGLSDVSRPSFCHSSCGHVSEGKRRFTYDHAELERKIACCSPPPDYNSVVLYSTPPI
UniProt P06756, residues 31-1048: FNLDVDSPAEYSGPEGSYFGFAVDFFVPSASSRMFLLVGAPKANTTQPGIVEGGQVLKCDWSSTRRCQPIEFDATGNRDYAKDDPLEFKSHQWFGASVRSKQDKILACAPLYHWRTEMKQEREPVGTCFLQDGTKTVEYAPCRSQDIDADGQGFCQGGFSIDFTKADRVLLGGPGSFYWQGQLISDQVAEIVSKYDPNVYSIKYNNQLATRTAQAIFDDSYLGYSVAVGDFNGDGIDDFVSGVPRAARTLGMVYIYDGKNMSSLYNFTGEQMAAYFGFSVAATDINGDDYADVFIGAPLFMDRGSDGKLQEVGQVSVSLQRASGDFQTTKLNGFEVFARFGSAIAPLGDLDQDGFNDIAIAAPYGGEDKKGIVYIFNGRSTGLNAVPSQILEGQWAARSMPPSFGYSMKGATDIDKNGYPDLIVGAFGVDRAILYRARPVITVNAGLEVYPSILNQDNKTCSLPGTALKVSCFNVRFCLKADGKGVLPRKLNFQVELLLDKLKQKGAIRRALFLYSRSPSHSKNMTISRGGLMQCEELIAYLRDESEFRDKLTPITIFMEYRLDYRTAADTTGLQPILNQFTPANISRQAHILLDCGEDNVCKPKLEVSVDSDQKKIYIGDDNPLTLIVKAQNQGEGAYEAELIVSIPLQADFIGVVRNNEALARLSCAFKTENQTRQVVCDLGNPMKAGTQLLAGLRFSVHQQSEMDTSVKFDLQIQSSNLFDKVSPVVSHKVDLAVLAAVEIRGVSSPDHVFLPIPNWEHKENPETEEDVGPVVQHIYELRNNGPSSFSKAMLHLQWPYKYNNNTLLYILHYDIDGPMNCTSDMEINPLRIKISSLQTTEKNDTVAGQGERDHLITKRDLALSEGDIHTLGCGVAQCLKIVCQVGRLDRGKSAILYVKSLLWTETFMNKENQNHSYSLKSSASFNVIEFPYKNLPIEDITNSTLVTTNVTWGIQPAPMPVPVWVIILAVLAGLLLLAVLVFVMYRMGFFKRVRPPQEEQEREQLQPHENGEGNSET

How the values were obtained:
VEGF-B186-Fc = VEGF-B186-Fc (UniProt P49765); assay: pull-down; HUVECs (siFLT1-treated) given 5 ug VEGF-B186-Fc or 1% BSA for 1 h at 4°C, lysed, protein A/G magnetic beads 2 h at 4°C, immunoblot; only the target purified
His-VEGF-B186 [1] = target: His-VEGF-B186 (UniProt P49765); assay: pull-down; HUVECs treated with 5 ug His-VEGF-B186 or 1% BSA for 1 h at 4°C, lysed (Pierce IP Lysis Buffer), Ni-NTA magnetic beads 2 h at 4°C, immunoblot; only the target purified
His-VEGF-B186 [2] = target: His-VEGF-B186 (UniProt P49765); assay: cross-linking; sulfo-SBED-labeled VEGF-B186 (2 ug in 1 mL HEPES buffer) on confluent HUVECs or TeloHAECs at 4°C for 1 h, UV 312 nm at room temperature, 200 mM DTT, lysis; biotin label transfer read by immunoblot and by LC-MS/MS of membrane areas; only the target purified

binding (VEGF-B186-Fc)	binding (His-VEGF-B186 [1])	binding (His-VEGF-B186 [2])	Substance
binds	–	–	vascular endothelial growth factor receptor 1 (VEGFR1) (from UniProt P17948 27-1338)
binds	binds	binds	CD51 (encoded by integrin alpha-V [ITGAV]) (from UniProt P06756 31-1048) (receptor)
